Assay results: paper doi:10.1101/2020.07.13.199828
Like-named read-outs stand apart in the source and are kept apart here. Results are given in words; binding and its absence hold for the method and conditions named. In cells and extracts the contact can be indirect. Some results given as binding are weak or reduced against the parent protein; the word gives no strength.

The chains behind the UniProt entries cited, without tags or fusion partners.
UniProt Q6PD10: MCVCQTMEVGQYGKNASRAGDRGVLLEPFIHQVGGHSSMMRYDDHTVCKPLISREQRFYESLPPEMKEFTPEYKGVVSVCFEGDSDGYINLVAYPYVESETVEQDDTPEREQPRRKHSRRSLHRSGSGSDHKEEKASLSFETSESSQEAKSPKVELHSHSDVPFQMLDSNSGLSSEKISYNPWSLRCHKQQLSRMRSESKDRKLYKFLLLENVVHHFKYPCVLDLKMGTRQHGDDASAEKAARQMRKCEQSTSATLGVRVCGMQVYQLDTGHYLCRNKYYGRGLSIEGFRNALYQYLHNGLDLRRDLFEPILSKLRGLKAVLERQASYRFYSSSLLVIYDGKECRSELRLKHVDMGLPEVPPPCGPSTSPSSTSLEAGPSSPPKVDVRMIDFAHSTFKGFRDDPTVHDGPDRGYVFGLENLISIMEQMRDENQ
UniProt P06730: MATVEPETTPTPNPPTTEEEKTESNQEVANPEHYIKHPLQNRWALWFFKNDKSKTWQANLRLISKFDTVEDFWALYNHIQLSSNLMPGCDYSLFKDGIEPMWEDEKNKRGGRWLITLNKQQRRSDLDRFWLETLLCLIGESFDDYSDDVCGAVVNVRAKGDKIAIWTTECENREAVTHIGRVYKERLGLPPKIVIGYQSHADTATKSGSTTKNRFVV
UniProt P26196: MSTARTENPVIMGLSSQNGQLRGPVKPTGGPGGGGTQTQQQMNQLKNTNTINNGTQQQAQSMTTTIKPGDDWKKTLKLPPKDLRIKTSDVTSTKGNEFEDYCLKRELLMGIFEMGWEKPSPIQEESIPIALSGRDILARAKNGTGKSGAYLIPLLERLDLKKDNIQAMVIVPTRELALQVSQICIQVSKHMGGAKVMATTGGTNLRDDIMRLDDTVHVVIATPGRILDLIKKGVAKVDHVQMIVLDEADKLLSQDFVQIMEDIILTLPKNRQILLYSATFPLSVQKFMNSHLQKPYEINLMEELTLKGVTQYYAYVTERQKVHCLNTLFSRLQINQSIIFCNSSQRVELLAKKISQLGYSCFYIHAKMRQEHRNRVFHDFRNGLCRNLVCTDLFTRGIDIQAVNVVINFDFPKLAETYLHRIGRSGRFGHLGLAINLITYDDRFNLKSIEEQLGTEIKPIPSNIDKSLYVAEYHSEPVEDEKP
UniProt Q14240: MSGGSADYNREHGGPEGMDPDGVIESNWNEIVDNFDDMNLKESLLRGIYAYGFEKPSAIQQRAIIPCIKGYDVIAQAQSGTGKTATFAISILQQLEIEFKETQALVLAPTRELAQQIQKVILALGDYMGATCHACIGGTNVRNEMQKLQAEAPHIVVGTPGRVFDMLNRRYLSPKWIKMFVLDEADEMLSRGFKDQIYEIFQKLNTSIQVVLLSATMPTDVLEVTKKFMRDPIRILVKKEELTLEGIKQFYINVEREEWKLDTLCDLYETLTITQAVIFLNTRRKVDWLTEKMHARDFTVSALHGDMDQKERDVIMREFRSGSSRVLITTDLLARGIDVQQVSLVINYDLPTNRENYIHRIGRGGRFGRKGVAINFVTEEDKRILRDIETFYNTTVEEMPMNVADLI
UniProt Q04637: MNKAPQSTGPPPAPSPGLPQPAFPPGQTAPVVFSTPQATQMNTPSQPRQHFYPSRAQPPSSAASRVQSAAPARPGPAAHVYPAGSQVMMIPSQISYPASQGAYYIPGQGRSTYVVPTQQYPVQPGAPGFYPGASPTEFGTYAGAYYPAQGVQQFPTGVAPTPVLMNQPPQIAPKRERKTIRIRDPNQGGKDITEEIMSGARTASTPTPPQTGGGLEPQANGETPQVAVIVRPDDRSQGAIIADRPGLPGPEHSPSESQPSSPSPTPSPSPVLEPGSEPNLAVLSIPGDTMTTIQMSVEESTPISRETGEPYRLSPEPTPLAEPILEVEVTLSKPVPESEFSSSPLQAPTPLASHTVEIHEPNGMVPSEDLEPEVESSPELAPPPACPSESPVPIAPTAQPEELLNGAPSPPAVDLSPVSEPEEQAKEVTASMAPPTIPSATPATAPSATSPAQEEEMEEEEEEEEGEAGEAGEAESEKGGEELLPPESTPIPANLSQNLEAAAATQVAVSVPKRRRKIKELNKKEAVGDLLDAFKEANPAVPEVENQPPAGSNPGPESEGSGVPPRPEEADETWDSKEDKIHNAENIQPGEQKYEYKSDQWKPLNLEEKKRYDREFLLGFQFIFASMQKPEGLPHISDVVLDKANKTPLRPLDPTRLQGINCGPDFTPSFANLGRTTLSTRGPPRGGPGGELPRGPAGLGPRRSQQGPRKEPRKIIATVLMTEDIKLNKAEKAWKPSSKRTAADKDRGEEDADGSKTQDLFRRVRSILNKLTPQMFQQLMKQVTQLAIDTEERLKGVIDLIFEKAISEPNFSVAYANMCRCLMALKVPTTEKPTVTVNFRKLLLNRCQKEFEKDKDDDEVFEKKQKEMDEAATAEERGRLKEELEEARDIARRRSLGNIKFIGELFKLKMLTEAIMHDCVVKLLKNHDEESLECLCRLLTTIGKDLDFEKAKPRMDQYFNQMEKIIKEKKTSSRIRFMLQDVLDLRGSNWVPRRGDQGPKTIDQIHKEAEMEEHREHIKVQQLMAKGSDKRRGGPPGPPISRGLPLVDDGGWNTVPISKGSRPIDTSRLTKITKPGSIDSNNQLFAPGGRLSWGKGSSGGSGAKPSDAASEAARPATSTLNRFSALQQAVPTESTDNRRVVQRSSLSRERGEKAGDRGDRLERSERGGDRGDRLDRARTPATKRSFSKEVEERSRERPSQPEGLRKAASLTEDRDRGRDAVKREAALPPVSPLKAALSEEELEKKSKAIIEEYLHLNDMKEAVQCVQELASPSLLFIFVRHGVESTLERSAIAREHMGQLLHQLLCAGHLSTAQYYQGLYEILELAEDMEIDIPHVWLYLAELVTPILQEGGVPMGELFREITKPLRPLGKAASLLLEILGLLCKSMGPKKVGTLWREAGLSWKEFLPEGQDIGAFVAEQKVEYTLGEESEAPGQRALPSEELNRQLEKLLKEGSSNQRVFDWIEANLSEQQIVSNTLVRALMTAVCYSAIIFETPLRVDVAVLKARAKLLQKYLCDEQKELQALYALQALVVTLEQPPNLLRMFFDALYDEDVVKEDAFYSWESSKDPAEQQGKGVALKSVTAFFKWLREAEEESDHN

B1: EDC4 (protein, UniProt Q6P2E9 1-1401)
chain: MASCASIDIEDATQHLRDILKLDRPAGGPSAESPRPSSAYNGDLNGLLVPDPLCSGDSTSANKTGLRTMPPINLQEKQVICLSGDDSSTCIGILAKEVEIVASSDSSISSKARGSNKVKIQPVAKYDWEQKYYYGNLIAVSNSFLAYAIRAANNGSAMVRVISVSTSERTLLKGFTGSVADLAFAHLNSPQLACLDEAGNLFVWRLALVNGKIQEEILVHIRQPEGTPLNHFRRIIWCPFIPEESEDCCEESSPTVALLHEDRAEVWDLDMLRSSHSTWPVDVSQIKQGFIVVKGHSTCLSEGALSPDGTVLATASHDGYVKFWQIYIEGQDEPRCLHEWKPHDGRPLSCLLFCDNHKKQDPDVPFWRFLITGADQNRELKMWCTVSWTCLQTIRFSPDIFSSVSVPPSLKVCLDLSAEYLILSDVQRKVLYVMELLQNQEEGHACFSSISEFLLTHPVLSFGIQVVSRCRLRHTEVLPAEEENDSLGADGTHGAGAMESAAGVLIKLFCVHTKALQDVQIRFQPQLNPDVVAPLPTHTAHEDFTFGESRPELGSEGLGSAAHGSQPDLRRIVELPAPADFLSLSSETKPKLMTPDAFMTPSASLQQITASPSSSSSGSSSSSSSSSSSLTAVSAMSSTSAVDPSLTRPPEELTLSPKLQLDGSLTMSSSGSLQASPRGLLPGLLPAPADKLTPKGPGQVPTATSALSLELQEVEPLGLPQASPSRTRSPDVISSASTALSQDIPEIASEALSRGFGSSAPEGLEPDSMASAASALHLLSPRPRPGPELGPQLGLDGGPGDGDRHNTPSLLEAALTQEASTPDSQVWPTAPDITRETCSTLAESPRNGLQEKHKSLAFHRPPYHLLQQRDSQDASAEQSDHDDEVASLASASGGFGTKVPAPRLPAKDWKTKGSPRTSPKLKRKSKKDDGDAAMGSRLTEHQVAEPPEDWPALIWQQQRELAELRHSQEELLQRLCTQLEGLQSTVTGHVERALETRHEQEQRRLERALAEGQQRGGQLQEQLTQQLSQALSSAVAGRLERSIRDEIKKTVPPCVSRSLEPMAGQLSNSVATKLTAVEGSMKENISKLLKSKNLTDAIARAAADTLQGPMQAAYREAFQSVVLPAFEKSCQAMFQQINDSFRLGTQEYLQQLESHMKSRKAREQEAREPVLAQLRGLVSTLQSATEQMAATVAGSVRAEVQHQLHVAVGSLQESILAQVQRIVKGEVSVALKEQQAAVTSSIMQAMRSAAGTPVPSAHLDCQAQQAHILQLLQQGHLNQAFQQALTAADLNLVLYVCETVDPAQVFGQPPCPLSQPVLLSLIQQLASDLGTRTDLKLSYLEEAVMHLDHSDPITRDHMGSVMAQVRQKLFQFLQAEPHNSLGKAARRLSLMLHGLVTPSLP
B2: 4E-T (protein, UniProt Q9NRA8 1-985)
chain: MDRRSMGETESGDAFLDLKKPPASKCPHRYTKEELLDIKELPHSKQRPSCLSEKYDSDGVWDPEKWHASLYPASGRSSPVESLKKELDTDRPSLVRRIVDPRERVKEDDLDVVLSPQRRSFGGGCHVTAAVSSRRSGSPLEKDSDGLRLLGGRRIGSGRIISARTFEKDHRLSDKDLRDLRDRDRERDFKDKRFRREFGDSKRVFGERRRNDSYTEEEPEWFSAGPTSQSETIELTGFDDKILEEDHKGRKRTRRRTASVKEGIVECNGGVAEEDEVEVILAQEPAADQEVPRDAVLPEQSPGDFDFNEFFNLDKVPCLASMIEDVLGEGSVSASRFSRWFSNPSRSGSRSSSLGSTPHEELERLAGLEQAILSPGQNSGNYFAPIPLEDHAENKVDILEMLQKAKVDLKPLLSSLSANKEKLKESSHSGVVLSVEEVEAGLKGLKVDQQVKNSTPFMAEHLEETLSAVTNNRQLKKDGDMTAFNKLVSTMKASGTLPSQPKVSRNLESHLMSPAEIPGQPVPKNILQELLGQPVQRPASSNLLSGLMGSLEPTTSLLGQRAPSPPLSQVFQTRAASADYLRPRIPSPIGFTPGPQQLLGDPFQGMRKPMSPITAQMSQLELQQAALEGLALPHDLAVQAANFYQPGFGKPQVDRTRDGFRNRQQRVTKSPAPVHRGNSSSPAPAASITSMLSPSFTPTSVIRKMYESKEKSKEEPASGKAALGDSKEDTQKASEENLLSSSSVPSADRDSSPTTNSKLSALQRSSCSTPLSQANRYTKEQDYRPKATGRKTPTLASPVPTTPFLRPVHQVPLVPHVPMVRPAHQLHPGLVQRMLAQGVHPQHLPSLLQTGVLPPGMDLSHLQGISGPILGQPFYPLPAASHPLLNPRPGTPLHLAMVQQQLQRSVLHPPGSGSHAAAVSVQTTPQNVPSRSGLPHMHSQLEHRPSQRSSSPVGLAKWFGSDVLQQPLPSMPAKVISVDELEYRQ

Legend:
SFB-tagged IP6K1 (mouse) [1] = target: SFB-tagged IP6K1 (mouse) (UniProt Q6PD10); experiment: pull-down
[2] = target: eIF4E (human (endogenous in HEK293T and U-2 OS)) (UniProt P06730); experiment: pull-down
GFP-tagged DDX6 (human) = GFP-tagged DDX6 (human) (UniProt P26196); experiment: co-IP
SFB-tagged IP6K1 (mouse) [3] = target: SFB-tagged IP6K1 (mouse) (UniProt Q6PD10); experiment: co-IP
SFB-tagged IP6K1 (mouse) [4] = target: SFB-tagged IP6K1 (mouse) (UniProt Q6PD10); experiment: pull-down; remark: listed apart in the source
[5] = target: eIF4E (human (endogenous in HEK293T and U-2 OS)) (UniProt P06730); experiment: pull-down; remark: listed apart in the source

Molecule | binding (SFB-tagged IP6K1 (mouse) [1]) | binding (GFP-tagged DDX6 (human)) | further results
eIF4A2 (from UniProt Q14240 1-407) (enzyme) | binds |  | binding [2]: binds
eIF4E (from UniProt P06730 1-217) |  | binds | 
eIF4G1 (from UniProt Q04637 1-1599) | binds |  | 
B1 |  | binds | binding (SFB-tagged IP6K1 (mouse) [3]): binds; binding (SFB-tagged IP6K1 (mouse) [4]): binds
B2 |  | binds | binding [5]: binds
